Test results published in article PMC7801388.
No constants are given. Whether binding was seen depends on the method and setting. In cells and extracts the contact can be indirect. For some of these results: Binding can be weak; no strength is given. For some of these results: Sequences can lack the tags named with a protein. Values belong to the molecule of their own block, whether it stands above or below them.

Chains of the proteins cited; added tags and fusions are not shown. Lines headed by an entry give the natural chain unless they say otherwise; changes in a name come on top.
UniProt Q9UNE7: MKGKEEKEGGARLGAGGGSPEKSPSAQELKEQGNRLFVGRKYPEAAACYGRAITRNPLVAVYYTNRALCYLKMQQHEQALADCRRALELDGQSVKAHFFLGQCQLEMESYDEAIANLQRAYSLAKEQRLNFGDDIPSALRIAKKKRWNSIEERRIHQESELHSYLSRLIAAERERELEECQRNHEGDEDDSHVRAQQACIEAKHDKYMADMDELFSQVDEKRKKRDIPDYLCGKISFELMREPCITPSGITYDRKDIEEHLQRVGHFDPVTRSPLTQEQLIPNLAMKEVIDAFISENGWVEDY
UniProt P35222: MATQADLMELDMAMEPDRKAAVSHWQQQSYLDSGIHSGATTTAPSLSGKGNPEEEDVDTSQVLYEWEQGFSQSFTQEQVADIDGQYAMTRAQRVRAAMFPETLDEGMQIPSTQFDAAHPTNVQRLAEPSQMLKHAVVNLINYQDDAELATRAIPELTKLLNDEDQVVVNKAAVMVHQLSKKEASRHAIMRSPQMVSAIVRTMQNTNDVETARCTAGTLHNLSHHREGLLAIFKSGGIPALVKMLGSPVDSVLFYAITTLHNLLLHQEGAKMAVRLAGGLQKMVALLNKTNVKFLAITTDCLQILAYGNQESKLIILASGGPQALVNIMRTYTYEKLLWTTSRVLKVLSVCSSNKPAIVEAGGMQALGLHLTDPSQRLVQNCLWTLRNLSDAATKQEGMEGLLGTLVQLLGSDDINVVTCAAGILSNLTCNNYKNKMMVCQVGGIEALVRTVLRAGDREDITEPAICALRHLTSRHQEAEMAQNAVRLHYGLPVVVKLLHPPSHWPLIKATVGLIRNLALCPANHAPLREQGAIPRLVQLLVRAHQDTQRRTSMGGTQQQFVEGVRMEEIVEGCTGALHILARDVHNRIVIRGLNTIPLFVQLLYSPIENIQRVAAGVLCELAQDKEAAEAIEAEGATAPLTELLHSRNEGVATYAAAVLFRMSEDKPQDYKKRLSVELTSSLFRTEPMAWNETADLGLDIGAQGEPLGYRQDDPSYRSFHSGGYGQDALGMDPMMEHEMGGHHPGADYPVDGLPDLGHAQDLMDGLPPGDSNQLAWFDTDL
UniProt Q9UJU2: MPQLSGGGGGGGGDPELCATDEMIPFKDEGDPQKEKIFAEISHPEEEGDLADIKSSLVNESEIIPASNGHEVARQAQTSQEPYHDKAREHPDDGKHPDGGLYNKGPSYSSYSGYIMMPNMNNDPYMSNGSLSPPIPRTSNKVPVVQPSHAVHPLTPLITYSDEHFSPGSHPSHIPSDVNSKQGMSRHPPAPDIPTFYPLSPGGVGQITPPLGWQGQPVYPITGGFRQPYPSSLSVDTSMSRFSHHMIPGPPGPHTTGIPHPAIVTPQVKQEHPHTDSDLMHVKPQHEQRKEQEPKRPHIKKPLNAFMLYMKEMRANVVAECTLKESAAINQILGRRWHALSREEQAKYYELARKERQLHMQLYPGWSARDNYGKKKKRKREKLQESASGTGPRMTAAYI

Key:
Assay in all cases: co-IP; HEK293T cells co-transfected with Flag- and HA-tagged plasmids; whole-cell lysates in low-salt lysis buffer (50 mM Hepes pH 7.5, 150 mM NaCl, 1% Triton X-100) incubated with anti-Flag agarose overnight at 4 °C, blotted with anti-HA; in Fig. 5 also with Myc-CHIP or Myc-CHIP T246M, CHIP siRNA, Wnt3a (40 ng/ml, 1 h)
[1] = target: Flag-CHIP (human (A549 cDNA)) (UniProt Q9UNE7)
[2] = target: Flag-β-catenin (human (A549 cDNA)) (UniProt P35222)
[3] = target: Flag-LEF1 (lymphoid enhancer factor) (human (A549 cDNA)) (UniProt Q9UJU2)
[4] = target: Flag-CHIP deletion mutant without the TPR domain (human (A549 cDNA))

binding [1]: binds
binding [2]: binds
Molecule: HA-LEF1 (from UniProt Q9UJU2-6)

binding [3]: binds
Molecule: HA-CHIP (carboxyl terminus of Hsc70-interacting protein) (from UniProt Q9UNE7 1-303) (enzyme)

binding [4]: no binding
B1: HA-Arc (protein, UniProt Q7LC44 1-396)
chain: MELDHRTSGGLHAYPGPRGGQVAKPNVILQIGKCRAEMLEHVRRTHRHLLAEVSKQVERELKGLHRSVGKLESNLDGYVPTSDSQRWKKSIKACLCRCQETIANLERWVKREMHVWREVFYRLERWADRLESTGGKYPVGSESARHTVSVGVGGPESYCHEADGYDYTVSPYAITPPPAAGELPGQEPAEAQQYQPWVPGEDGQPSPGVDTQIFEDPREFLSHLEEYLRQVGGSEEYWLSQIQNHMNGPAKKWWEFKQGSVKNWVEFKKEFLQYSEGTLSREAIQRELDLPQKQGEPLDQFLWRKRDLYQTLYVDADEEEIIQYVVGTLQPKLKRFLRHPLPKTLEQLIQRGMEVQDDLEQAAEPAGPHLPVEDEAETLTPAPNSESVASDRTQPE
